## Screening data

From PubChem BioAssay record AID504749 (NCATS, 2011).

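A panel of P. falciparum strains inside erythrocytes is exposed to compounds for three days, then a DNA-binding dye reports the amount of parasite DNA.
Each compound was titrated across a series from about 0.000037 to 29 µM.
The number is the fitted AC50, the concentration giving a half-maximal change in signal; a lower value means higher potency, whether the curve shows a decrease or an increase.
Calls follow the curve class and fit quality: every row here is inconclusive, covering signal-raising curves and weak, poorly fitted, partial or highest-dose-only inhibition curves.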

Values are in nM.
Every entry below has the call inconclusive.
These entries are mostly ones the record files as inconclusive; other results of the assay are not listed here.
Potencies fitted to partial, single-point or poorly fitting curves are rough.

| Compound | tested on / at | potency (nM) | curve |
|---|---|---|---|
| `C[C@@H](Cc1ccccc1)NCCC(c1ccccc1)c1ccccc1` | CP247 | 1778 | inhibitor, partial curve |
| `C[C@@H](Cc1ccccc1)NCCC(c1ccccc1)c1ccccc1` | P94_40 | 3162 | inhibitor, single point |
| `C[C@@H](Cc1ccccc1)NCCC(c1ccccc1)c1ccccc1` | PC15 | 5012 | inhibitor, single point |
| `C[C@@H](Cc1ccccc1)NCCC(c1ccccc1)c1ccccc1` | CP250 | 10000 | inhibitor, single point |
| `C[C@@H](Cc1ccccc1)NCCC(c1ccccc1)c1ccccc1` | CP268 | 3612 | inhibitor, single point |
| `C[C@@H](Cc1ccccc1)NCCC(c1ccccc1)c1ccccc1` | ATS95 | 10000 | inhibitor, single point |
| `C[C@@H](Cc1ccccc1)NCCC(c1ccccc1)c1ccccc1` | CP203 | 4053 | inhibitor, single point |
| `C[C@@H](Cc1ccccc1)NCCC(c1ccccc1)c1ccccc1` | CP194 | 4548 | inhibitor, single point |
| `C[C@@H](Cc1ccccc1)NCCC(c1ccccc1)c1ccccc1` | TAB165 | 3548 | inhibitor, partial curve, poor fit |
| `C[C@@H](Cc1ccccc1)NCCC(c1ccccc1)c1ccccc1` | TAB113 | 10000 | inhibitor, single point |
| `C[C@@H](Cc1ccccc1)NCCC(c1ccccc1)c1ccccc1` | parasite line B | 10000 | inhibitor, single point |
| `CCCCNc1c(C(=O)OCC)c(C)nc2c1cnn2CC` | CP260 | 12589 | inhibitor, single point |
| `CCCCNc1c(C(=O)OCC)c(C)nc2c1cnn2CC` | TAB165 | 17782 | inhibitor, single point |
| `CCCCNc1c(C(=O)OCC)c(C)nc2c1cnn2CC` | 7G8 | 12589 | inhibitor, single point |
| `CCCCNc1c(C(=O)OCC)c(C)nc2c1cnn2CC` | CP335 | 13459 | inhibitor, partial curve, poor fit |
| `CCCCNc1c(C(=O)OCC)c(C)nc2c1cnn2CC` | P94_40 | 11220 | inhibitor, single point |
| `CCCCNc1c(C(=O)OCC)c(C)nc2c1cnn2CC` | AS120 | 17782 | inhibitor, single point |
| `CCCCNc1c(C(=O)OCC)c(C)nc2c1cnn2CC` | ICS | 10000 | inhibitor, single point |
| `CCCCNc1c(C(=O)OCC)c(C)nc2c1cnn2CC` | W2 | 13459 | inhibitor, single point |
| `CCCCNc1c(C(=O)OCC)c(C)nc2c1cnn2CC` | DIV17 | 19011 | inhibitor, single point |
| `CCCCCCCC/C=C\CCCCCCCC(=O)NCc1ccc(O)c(OC)c1` | PAD | 17782 | inhibitor, single point |
| `CCCCCCCC/C=C\CCCCCCCC(=O)NCc1ccc(O)c(OC)c1` | TAB113 | 10000 | inhibitor, single point |
| `CCCCCCCC/C=C\CCCCCCCC(=O)NCc1ccc(O)c(OC)c1` | FAB9 | 17782 | inhibitor, single point |
| `CCCCCCCC/C=C\CCCCCCCC(=O)NCc1ccc(O)c(OC)c1` | HB3 | 10000 | inhibitor, single point |
| `CCCCCCCC/C=C\CCCCCCCC(=O)NCc1ccc(O)c(OC)c1` | P93_24 | 17782 | inhibitor, single point |
| `CCCCCCCC/C=C\CCCCCCCC(=O)NCc1ccc(O)c(OC)c1` | PC49 | 10000 | inhibitor, single point |
| `CCCCCCCC/C=C\CCCCCCCC(=O)NCc1ccc(O)c(OC)c1` | PC15 | 10000 | inhibitor, single point |
| `CCCCCCCC/C=C\CCCCCCCC(=O)NCc1ccc(O)c(OC)c1` | CP286 | 11220 | inhibitor, single point |
| `CCCCCCCC/C=C\CCCCCCCC(=O)NCc1ccc(O)c(OC)c1` | ECU | 11220 | inhibitor, single point |
| `CCCCCCCC/C=C\CCCCCCCC(=O)NCc1ccc(O)c(OC)c1` | CP217 | 10000 | inhibitor, single point |
| `CCCCCCCC/C=C\CCCCCCCC(=O)NCc1ccc(O)c(OC)c1` | 7G8 | 10000 | inhibitor, single point |
| `CCCCCCCC/C=C\CCCCCCCC(=O)NCc1ccc(O)c(OC)c1` | ICS | 11220 | inhibitor, single point |
| `CCCCCCCC/C=C\CCCCCCCC(=O)NCc1ccc(O)c(OC)c1` | AS120 | 11220 | inhibitor, single point |
| `CCCCCCCC/C=C\CCCCCCCC(=O)NCc1ccc(O)c(OC)c1` | 3D7 | 10000 | inhibitor, single point |
| `CSc1ccc2c(c1)N(CCC1CCCCN1C)c1ccccc1S2` (stereo not shown) | CP265 | 11220 | inhibitor, single point |
| `CSc1ccc2c(c1)N(CCC1CCCCN1C)c1ccccc1S2` (stereo not shown) | FAB9 | 17782 | inhibitor, single point |
| `CSc1ccc2c(c1)N(CCC1CCCCN1C)c1ccccc1S2` (stereo not shown) | CP217 | 8912 | inhibitor, single point |
| `CSc1ccc2c(c1)N(CCC1CCCCN1C)c1ccccc1S2` (stereo not shown) | N140 | 11220 | inhibitor, single point |
| `CSc1ccc2c(c1)N(CCC1CCCCN1C)c1ccccc1S2` (stereo not shown) | CP256 | 17782 | inhibitor, single point |
| `CSc1ccc2c(c1)N(CCC1CCCCN1C)c1ccccc1S2` (stereo not shown) | DIV30 | 11995 | inhibitor, partial curve |
| `CSc1ccc2c(c1)N(CCC1CCCCN1C)c1ccccc1S2` (stereo not shown) | CP185 | 17782 | inhibitor, single point |
| `CSc1ccc2c(c1)N(CCC1CCCCN1C)c1ccccc1S2` (stereo not shown) | C2A | 10000 | inhibitor, single point |
| `CSc1ccc2c(c1)N(CCC1CCCCN1C)c1ccccc1S2` (stereo not shown) | DFO2036 | 12589 | inhibitor, single point |
| `CSc1ccc2c(c1)N(CCC1CCCCN1C)c1ccccc1S2` (stereo not shown) | CP194 | 19011 | inhibitor, single point |
| `CSc1ccc2c(c1)N(CCC1CCCCN1C)c1ccccc1S2` (stereo not shown) | CP262 | 15101 | inhibitor, single point |
| `CSc1ccc2c(c1)N(CCC1CCCCN1C)c1ccccc1S2` (stereo not shown) | CP252 | 17782 | inhibitor, single point |
| `CSc1ccc2c(c1)N(CCC1CCCCN1C)c1ccccc1S2` (stereo not shown) | CP315 | 21331 | inhibitor, partial curve, poor fit |
| `CSc1ccc2c(c1)N(CCC1CCCCN1C)c1ccccc1S2` (stereo not shown) | Dd2 | 11220 | inhibitor, partial curve |
| `CSc1ccc2c(c1)N(CCC1CCCCN1C)c1ccccc1S2` (stereo not shown) | CP203 | 16944 | inhibitor, single point |
| `CSc1ccc2c(c1)N(CCC1CCCCN1C)c1ccccc1S2` (stereo not shown) | CP191 | 12589 | inhibitor, single point |
| `CSc1ccc2c(c1)N(CCC1CCCCN1C)c1ccccc1S2` (stereo not shown) | ATS95 | 11220 | inhibitor, single point |
| `CSc1ccc2c(c1)N(CCC1CCCCN1C)c1ccccc1S2` (stereo not shown) | JCK | 10000 | inhibitor, single point |
| `CSc1ccc2c(c1)N(CCC1CCCCN1C)c1ccccc1S2` (stereo not shown) | CP268 | 13459 | inhibitor, single point |
| `CSc1ccc2c(c1)N(CCC1CCCCN1C)c1ccccc1S2` (stereo not shown) | CP335 | 15101 | inhibitor, single point |

Some entries from above, unchanged:

Compound,tested on / at,potency (nM),curve
CCCCCCCC/C=C\CCCCCCCC(=O)NCc1ccc(O)c(OC)c1,FAB9,17782,"inhibitor, single point"
C[C@@H](Cc1ccccc1)NCCC(c1ccccc1)c1ccccc1,PC15,5012,"inhibitor, single point"
C[C@@H](Cc1ccccc1)NCCC(c1ccccc1)c1ccccc1,CP194,4548,"inhibitor, single point"